Paper doi:10.1101/286708
Changes are numbered by the printed parent chain. Names may count otherwise. No constants are given. Whether binding was seen depends on the method and setting. Binding seen in cells or lysates may run through a third protein. Some entries that bind do so weakly or less than the wild type. Sequences can lack the tags named with a protein. Blank lines part the entries; values can stand above or below the binder they belong to.

By UniProt entry, the sequences of proteins in these tests, tags left out. Where a name states a change or a piece, a line headed by the entry shows the natural chain unless it says otherwise. Chains listed by the source or under a name are the forms on record and can include a tag or linker. Residues count along the entry.
FLAG-β-TrCP1 expressed in H1299 cells (Q9Y297, form named): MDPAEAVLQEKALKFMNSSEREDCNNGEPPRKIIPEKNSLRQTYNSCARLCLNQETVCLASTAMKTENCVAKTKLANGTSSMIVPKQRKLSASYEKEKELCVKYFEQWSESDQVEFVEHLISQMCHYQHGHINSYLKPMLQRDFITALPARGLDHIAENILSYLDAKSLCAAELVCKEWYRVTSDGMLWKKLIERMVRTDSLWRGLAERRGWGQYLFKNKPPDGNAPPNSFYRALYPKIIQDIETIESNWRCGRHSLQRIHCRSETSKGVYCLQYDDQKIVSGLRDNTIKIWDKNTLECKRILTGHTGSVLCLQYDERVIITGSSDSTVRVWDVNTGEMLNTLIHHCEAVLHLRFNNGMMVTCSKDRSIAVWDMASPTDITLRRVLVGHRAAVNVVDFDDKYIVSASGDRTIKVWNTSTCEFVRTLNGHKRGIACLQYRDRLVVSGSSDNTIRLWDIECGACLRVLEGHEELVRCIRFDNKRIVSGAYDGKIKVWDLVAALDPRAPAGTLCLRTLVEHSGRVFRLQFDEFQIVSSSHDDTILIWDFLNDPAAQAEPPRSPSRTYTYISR
FLAG-MDM2(117-497), in vitro transcribed and translated (Q00987, residues 111-491): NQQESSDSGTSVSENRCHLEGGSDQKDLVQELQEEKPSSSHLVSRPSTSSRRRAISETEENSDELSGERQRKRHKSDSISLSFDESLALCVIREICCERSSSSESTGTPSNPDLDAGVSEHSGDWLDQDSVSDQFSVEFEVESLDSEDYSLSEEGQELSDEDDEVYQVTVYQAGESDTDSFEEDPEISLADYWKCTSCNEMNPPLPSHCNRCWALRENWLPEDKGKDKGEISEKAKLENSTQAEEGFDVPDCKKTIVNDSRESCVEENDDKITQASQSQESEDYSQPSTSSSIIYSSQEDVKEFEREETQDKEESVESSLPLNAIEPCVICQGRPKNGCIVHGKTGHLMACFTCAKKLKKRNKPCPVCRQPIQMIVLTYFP
FLAG-MDM2 expressed in H1299 cells (Q00987, form named): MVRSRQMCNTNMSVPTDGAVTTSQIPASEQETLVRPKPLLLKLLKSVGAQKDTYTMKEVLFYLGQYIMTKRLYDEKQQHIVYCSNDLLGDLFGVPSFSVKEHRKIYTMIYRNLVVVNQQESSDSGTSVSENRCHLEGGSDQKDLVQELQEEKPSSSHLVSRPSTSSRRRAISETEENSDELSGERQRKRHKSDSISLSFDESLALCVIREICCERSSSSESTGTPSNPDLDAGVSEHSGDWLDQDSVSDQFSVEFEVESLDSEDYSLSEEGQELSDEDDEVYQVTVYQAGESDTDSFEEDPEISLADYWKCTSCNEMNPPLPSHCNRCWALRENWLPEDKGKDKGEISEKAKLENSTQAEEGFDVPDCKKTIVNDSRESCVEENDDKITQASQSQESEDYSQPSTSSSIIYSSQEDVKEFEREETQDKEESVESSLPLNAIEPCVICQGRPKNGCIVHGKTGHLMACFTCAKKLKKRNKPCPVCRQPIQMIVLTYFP

Key:
Test in all cases: co-IP
[1] = molecular target: FLAG-β-TrCP1 expressed in H1299 cells (human) (UniProt Q9Y297)
[2] = molecular target: FLAG-MDM2 expressed in H1299 cells (human) (UniProt Q00987)
[3] = molecular target: FLAG-MDM2(117-497), in vitro transcribed and translated (human) (UniProt Q00987)

binding [1]: binds
binding [2]: binds
B1: myc-PER2 expressed in H1299 cells (protein, UniProt O15055-1 1-1255)
chain: MNGYAEFPPSPSNPTKEPVEPQPSQVPLQEDVDMSSGSSGHETNENCSTGRDSQGSDCDDSGKELGMLVEPPDARQSPDTFSLMMAKSEHNPSTSGCSSDQSSKVDTHKELIKTLKELKVHLPADKKAKGKASTLATLKYALRSVKQVKANEEYYQLLMSSEGHPCGADVPSYTVEEMESVTSEHIVKNADMFAVAVSLVSGKILYISDQVASIFHCKRDAFSDAKFVEFLAPHDVGVFHSFTSPYKLPLWSMCSGADSFTQECMEEKSFFCRVSVRKSHENEIRYHPFRMTPYLVKVRDQQGAESQLCCLLLAERVHSGYEAPRIPPEKRIFTTTHTPNCLFQDVDERAVPLLGYLPQDLIETPVLVQLHPSDRPLMLAIHKKILQSGGQPFDYSPIRFRARNGEYITLDTSWSSFINPWSRKISFIIGRHKVRVGPLNEDVFAAHPCTEEKALHPSIQELTEQIHRLLLQPVPHSGSSGYGSLGSNGSHEHLMSQTSSSDSNGHEDSRRRRAEICKNGNKTKNRSHYSHESGEQKKKSVTEMQTNPPAEKKAVPAMEKDSLGVSFPEELACKNQPTCSYQQISCLDSVIRYLESCNEAATLKRKCEFPANVPALRSSDKRKATVSPGPHAGEAEPPSRVNSRTGVGTHLTSLALPGKAESVASLTSQCSYSSTIVHVGDKKPQPELEMVEDAASGPESLDCLAGPALACGLSQEKEPFKKLGLTKEVLAAHTQKEEQSFLQKFKEIRKLSIFQSHCHYYLQERSKGQPSERTAPGLRNTSGIDSPWKKTGKNRKLKSKRVKPRDSSESTGSGGPVSARPPLVGLNATAWSPSDTSQSSCPAVPFPAPVPAAYSLPVFPAPGTVAAPPAPPHASFTVPAVPVDLQHQFAVQPPPFPAPLAPVMAFMLPSYSFPSGTPNLPQAFFPSQPQFPSHPTLTSEMASASQPEFPSRTSIPRQPCACPATRATPPSAMGRASPPLFQSRSSSPLQLNLLQLEEAPEGGTGAMGTTGATETAAVGADCKPGTSRDQQPKAPLTRDEPSDTQNSDALSTSSGLLNLLLNEDLCSASGSAASESLGSGSLGCDASPSGAGSSDTSHTSKYFGSIDSSENNHKAKMNTGMEESEHFIKCVLQDPIWLLMADADSSVMMTYQLPSRNLEAVLKEDREKLKLLQKLQPRFTESQKQELREVHQWMQTGGLPAAIDVAECVYCENKEKGNICIPYEEDIPSLGLSEVSDTKEDENGSPLNHRIEEQT

binding [2]: binds
B2: myc-PER2(S662A) expressed in H1299 cells (protein, UniProt O15055-1 1-1255)
chain: B1 chain with S662A

binding [3]: binds
B3: myc-PER2, in vitro transcribed and translated (protein, UniProt O15055-1 1-1255)
chain: B1 chain
